Results deposited as PubChem BioAssay AID1259308 (NCATS, 2017)
In all, the deposit lists about 59,000 reagents; shown is an unselected part. Over the whole deposit, about 1,510 (2.6%) are marked active. 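Calls use total luciferase alone and ignore viability, so some active siRNAs may act by altering cell number.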 A number with no mark means an inactive call. The numbers tell different reagents against one gene apart. No sequences are given here.

- Purpose: 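Genes whose loss raises luciferase production in HEK293 cells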 (primary screen)
- Cells: human HEK293 embryonic kidney cells stably expressing firefly luciferase (HEK-CMV-Luc2-Hygro)
- Knock-down reagent: single siRNA against human genes, 0.8 pmol siRNA per well
- Timing: 72 h
- Read-out: 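Reporter luminescence and viable-cell signal on separate replicate plates, given as percent of non-targeting control and median/MAD z-scores, plus per-cell luciferase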
- Reading the numbers: total luciferase, z-score and total luciferase, % of control: higher = more reporter protein produced; luciferase per cell, z-score: higher = more reporter output per viable cell; viable cells, % of control: higher = more viable cells
- Rule for the call: 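An siRNA counts as active if its total luciferase robust z-score exceeds 3; genes with two or more such siRNAs out of three were retested with fresh siRNAs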
- Meaning of the calls: active = raised luciferase; inactive = no rise

target,reagent no.,"total luciferase, z-score","total luciferase, % of control","luciferase per cell, z-score","viable cells, % of control"
SSX6P,1,4.78 (active),177,2.58,100
SSX6P,2,0.0988,83.9,-0.144,97.3
SSX6P,3,0.244,86.7,-0.398,108
CCDC163,1,-0.63,69.4,-0.585,90.4
CCDC163,2,0.0918,83.7,0.107,90.9
CCDC163,3,0.359,89,0.607,84.8
LIMK2,1,-1.35,55,0.0573,60.5
LIMK2,2,0.864,99.1,-0.128,115
LIMK2,3,-1.44,53.2,-2.13,104
COG7,1,2.24,126,1.63,92
COG7,2,-1.19,58.3,-1.08,86.5
COG7,3,-0.09,80.1,0.589,76.6
IQCN,1,2.83,138,1.79,96.3
IQCN,2,1.08,103,0.241,108
IQCN,3,-0.59,70.1,-1.04,103
PPHLN1,1,0.779,97.4,1.61,71.3
PPHLN1,2,0.128,84.4,0.0118,94.1
PPHLN1,3,1.25,107,0.736,98.3
MTF2,1,-0.123,79.4,-0.285,95.7
MTF2,2,-1.09,60.2,-1.33,95.4
MTF2,3,0.279,87.4,0.0154,97.3
TGFBI,1,-0.936,63.3,-1.21,97.1
TGFBI,2,0.793,97.7,0.0175,109
TGFBI,3,5.52 (active),192,3.33,89.2
EPB41L1,1,-0.631,69.3,-0.227,82.2
EPB41L1,2,2.74,136,2.29,83.3
EPB41L1,3,-1.35,54.9,-1.18,83.8
ZNF490,1,-0.381,74.3,-0.0478,84.1
ZNF490,2,1.85,119,1.49,89.6
ZNF490,3,0.0297,82.5,-0.264,98.8
CDK4,1,1.04,103,3.14,50.1
CDK4,2,-0.417,73.6,-0.756,100
CDK4,3,-0.7,68,-0.743,92.3
ZNF586,1,-2.24,37.3,-0.882,52.6
ZNF586,2,1.08,103,0.954,89.8
ZNF586,3,-1.21,57.8,-0.451,72.8
ADH1A,1,0.479,91.4,-0.271,110
ADH1A,2,-0.0238,81.4,0.032,90.2
ADH1A,3,0.172,85.3,-0.0907,97.6
ZNF407,1,0.819,98.2,0.329,101
ZNF407,2,-1.19,58.2,-0.836,81.1
ZNF407,3,0.332,88.5,0.797,80.2
IDI1,1,0.438,90.6,-0.197,107
IDI1,2,-0.277,76.4,-0.425,95.5
IDI1,3,0.214,86.1,0.0745,94.4
UPF2,1,0.277,87.4,0.296,90.3
UPF2,2,0.699,95.8,0.748,87.9
UPF2,3,0.812,98,0.138,106
TLCD3B,1,3.01 (active),142,1.59,104
TLCD3B,2,1.75,117,1.25,93.8
TLCD3B,3,-0.388,74.2,-0.851,104
CCDC61,1,0.279,87.4,0.712,81
CCDC61,2,0.276,87.4,-0.0431,98.8
CCDC61,3,2.77,137,2.36,82.3
LRRC25,1,-0.868,64.6,-0.821,89.7
LRRC25,2,1.11,104,1.24,83.8
LRRC25,3,-0.89,64.2,0.191,68.2

Copied from above (4 entries):
target,reagent no.,"total luciferase, z-score","total luciferase, % of control","luciferase per cell, z-score","viable cells, % of control"
EPB41L1,2,2.74,136,2.29,83.3
EPB41L1,3,-1.35,54.9,-1.18,83.8
ZNF490,1,-0.381,74.3,-0.0478,84.1
ZNF490,2,1.85,119,1.49,89.6
